Some of the results follow. Shown are side measurements of this screen, not its main read-out; they come without a call. Compounds called inactive in the main read-out are mostly missing here. Words in brackets tell the shape of the fitted curve; partial curves, single points and poor fits give uncertain potencies.
Assay: qHTS Assay for Lipid Storage Modulators in Drosophila S3 Cells;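 on cell number change: cells counted by Cell Tracker Red CMTPX staining in the red channel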
Details: BODIPY lipid droplet fluorescence, 18-24 h; for cell number change: measured here: cell count max response, cells fed with added oleic acid
Outline: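 Drosophila S3 cells loaded with oleic acid (400 uM, as added) and compounds at several concentrations; lipid droplets imaged by 488-nm laser-scanning cytometry, 500–530 nm intensity and object ratio to cell channel. Percent activity normalized to 20 uM Triacsin C.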

[1] = measured here: lipid fluorescence (Fed channel) AC50, cells fed with added oleic acid
[2] = measured here: cell number channel AC50, cells fed with added oleic acid

Compound	cell number change [%]	AC50 [1]	AC50 [2]
COc1ccccc1NC(=S)N(Cc1ccco1)Cc1cc2ccc(C)c(C)c2[nH]c1=O	5.71	13 µM [rising, partial curve]	
CC(C)(C)C1CCC(C(=O)Nc2nccs2)CC1 (stereo unspecified)	-24.2	29.1 µM [rising, single point]	
Cc1cccc(C(=O)OCC(=O)NC(=O)c2ccccc2)c1O	-12	2.06 µM [falling, partial curve]	
O=C(CC12CC3CC(CC(C3)C1)C2)N1CCCOC1	-0.255	0.92 µM [falling, full curve]	
CCCN1CCN(CCCNC(=O)c2ccc(CS(=O)c3ccccc3C)o2)CC1 (stereo unspecified)	17.7	4.11 µM [falling, single point]	2.31 µM [rising, partial curve]
CCOC(=O)c1cccc(NC(=O)CSc2nnc(-c3ccoc3C)n2CCOC)c1	243		25.9 µM [rising, partial curve]
COc1ccc(C(=S)N2CCOCC2)cc1OC(=O)c1cc([N+](=O)[O-])c(C)c([N+](=O)[O-])c1	-76.5	25.9 µM [falling, partial curve]	32.6 µM [falling, partial curve]
CC1CCC(NC(=O)CN(C)S(=O)(=O)c2ccc3c(c2)CCC(=O)N3)CC1 (stereo unspecified)	-39.5		29.1 µM [falling, single point]
CCc1ccccc1NC(=O)C1CCCN(c2nn3c(=O)cc(C)nc3s2)C1 (stereo unspecified)	0.576	23.1 µM [falling, single point]	
CN(CC(=O)Nc1ccc(Cl)c(S(=O)(=O)N2CCOCC2)c1)C(=O)c1ccc(C#N)cc1	-34.5	1.03 µM [falling, full curve, poor fit]	25.9 µM [falling, partial curve]
O=[N+]([O-])c1ccccc1S(=O)(=O)NC1CC2CCC1C2 (stereo unspecified)	-13	23.1 µM [falling, partial curve, poor fit]	
Cc1[nH]n(-c2ccccc2)c(=S)c1C=Nc1ccc([N+](=O)[O-])cc1	-83		25.9 µM [falling, partial curve]
COc1ccc(C(=O)/C=C/C(=O)N(CC(=O)NC2CCCCC2)Cc2ccccc2)c(O)c1	-39.7	4.11 µM [falling, full curve]	2.59 µM [falling, full curve]
N#Cc1ccccc1Sc1ccccc1C(=O)OCC(=O)NC12CC3CC(CC(C3)C1)C2	26.6	4.61 µM [falling, partial curve]	
CC(C)c1ccc(CC(NC(=O)c2ccccc2)C(=O)NCC(=O)O)cc1 (stereo unspecified)	-61		
Cc1cccc(NC(=S)NNC(=O)c2ccc3c(c2)OCO3)c1	3.62	0.0731 µM [rising, full curve, poor fit]	
O=C(Nc1cccc(-c2cccc(F)c2)c1)C1CCN(C2CCOCC2)CC1		0.58 µM [falling, single point]	
COc1ccc(CSCC(=O)N/N=C/c2ccccc2O)cc1	-45.6	29.1 µM [falling, single point]	
CC(=O)Nc1ccc(OC(F)(F)C(F)F)c(NC(C)=O)c1	-1.13	6.51 µM [falling, single point]	
CCOc1ccccc1Nc1nnc(SCC(=O)Nc2ccc3[nH]c(=O)[nH]c3c2)s1	16.6	18.4 µM [rising, partial curve, poor fit]	
Cc1cc(C)nc(SCC(=O)Nc2ccc(S(=O)(=O)NCCO)cc2)n1	15.8		
O=C(CSc1nnc(CNc2ccc(F)cc2)o1)N1CCN(C(=O)c2ccco2)CC1	13	5.8 µM [rising, partial curve, poor fit]	
NC(=O)C1CCN(C(=O)c2cc3ccccc3cc2O)CC1	47.9		29.1 µM [rising, single point]
CC1(C)CC(=O)C2=C(C1)OC(N)=C(C#N)C21C(=O)N2CCCc3cccc1c32 (stereo unspecified)			1.3 µM [rising, partial curve, poor fit]
O=[N+]([O-])c1cc(NS(=O)(=O)c2ccc(Cl)nc2)ccc1Cl	-6.09	6.51 µM [rising, single point]	
CCn1c(CNc2ccc(Cl)cc2)nnc1SCC(=O)NCc1ccccc1	-12.8	18.4 µM [rising, single point]	
O=C(COC(=O)c1cnccn1)c1ccc([N+](=O)[O-])cc1	-19.7		6.51 µM [falling, single point]
COc1ccc(-n2c(-c3ccc(F)cc3)cnc2SCC(=O)NCc2ccco2)cc1	-0.885	20.6 µM [rising, partial curve]	

Looked up by structure from above (2):
Compound	cell number change [%]	AC50 [1]	AC50 [2]
CC1(C)CC(=O)C2=C(C1)OC(N)=C(C#N)C21C(=O)N2CCCc3cccc1c32 (stereo unspecified)			1.3 µM [rising, partial curve, poor fit]
Cc1[nH]n(-c2ccccc2)c(=S)c1C=Nc1ccc([N+](=O)[O-])cc1	-83		25.9 µM [falling, partial curve]
